In PubChem BioAssay AID1347076 (National Center for Advancing Translational Sciences (NCATS), 2019):
Screen size: about 400,000 compounds; about 13,000 (3.2%) were called active. The inconclusive results got no clear call from the source; some entries with a clear call stand among them for comparison. The call rests on the fitted dose curve; in most records, active means well fitted cell-killing curve with a large enough effect; inconclusive means small, poorly fitted or top-dose-only effect, or effect the other way; inactive means flat fitted curve, though single readings scatter. Potencies of inconclusive entries are doubtful fits and often do not repeat.
On the % scale 0 is the no-effect control and ±100 the full control effect; potency means the concentration at half of the fitted maximal effect.

Test: qHTS assay for MDR1-selective chemotherapeutics: Primary screen using the drug-selected MDR subline cells KB-V1; further: nearly all actives have a fitted effect of over 60% in size
Conditions: KB-V1 MDR cells viability, CellTiter-Glo, 72 h; activity change, negative = cytotoxicity: at 46.1 µM (top of the series)
Summary of the method: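 Luminescent ATP read-out (CellTiter-Glo, 10 min) measures survival of drug-selected KB-V1 MDR cells after 72 h, 37 degrees C compound exposure. Medium: phenol-red-free DMEM, 10% FBS. Values from fitted concentration-response curves.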
For `Oc1[nH]c2ccccc2c1N=NC(=S)NCCc1ccccc1`, the Potency was inconclusive: 20.6 µM [cytotoxic, partial curve, poor fit]. For `Cc1ccc2c(c1)C(c1ccccc1)N(C(=O)c1ccc3c(c1)OCO3)CC(=O)N2` (stereo not given), the Potency was inconclusive: 25.9 µM [cytotoxic, single point]. For `Cc1ccc(-c2nc(N/N=C/c3ccncc3)c3ccccc3n2)cc1`, the Potency was active: 23.1 µM. For `Cc1ccc2nc(-c3ccc(NS(=O)(=O)c4c(C)n(C)c(=O)n(C)c4=O)cc3)sc2c1`, the Potency was inconclusive: 18.4 µM [cytotoxic, partial curve, poor fit]. With `C/C(=N\NC(=O)c1cccnc1)c1c(O)cc(C)oc1=O` the “activity change, negative = cytotoxicity” value was inactive: 6.46%. In the case of `COc1ccc(CCNC(=O)C2CCN(Cc3nc(-c4ccccc4F)oc3C)CC2)cc1OC`, the Potency is reported as active: 16.4 µM. For `Cc1ccc(CN2CCN(C3CCN(C(=O)c4ccccc4)CC3)C(=O)C2=O)cc1`, the Potency was inconclusive: 18.4 µM [rising, partial curve]. In the case of `Cc1cc(=O)n2cccc(O)c2n1`, the “activity change, negative = cytotoxicity” value is reported as inactive: -22.5%. In the case of `CCCCN(CCCNc1ncnc2nc[nH]c12)c1ccccc1`, the Potency is reported as inconclusive: 20.6 µM [cytotoxic, single point]. In the case of `COc1ccc(CNC(=O)C2(C)Cc3c(-c4ccccc4)ccnc3O2)cc1OC` (stereo not given), the “activity change, negative = cytotoxicity” value is reported as inactive: -22.4%. For `CCc1ccccc1N(CC(=O)NC1CCCCC1)C(=O)CCCC(=O)Nc1ccccn1`, the Potency was inconclusive: 7.31 µM [cytotoxic, partial curve]. In the case of `N#Cc1ccsc1NC(=O)CN1CCN(c2ccc(O)cc2)CC1`, the “activity change, negative = cytotoxicity” value is reported as inactive: -27.5%. For `COC(=O)C1=C(N)Oc2cc(N(C)C)ccc2C1c1ccccc1OC` (stereo not given), the Potency was inconclusive: 2.59 µM [cytotoxic, full curve, poor fit]. For `CCN(Cc1ccncc1)C(=O)c1cc(COc2c(F)cccc2F)on1`, the Potency was inconclusive: 23.1 µM [cytotoxic, single point]. For `COc1ccc(C(=O)NC(=S)N2CCOCC2)cc1Br`, the “activity change, negative = cytotoxicity” value was inactive: 14%. With `Cc1ccc(C(=O)Nc2cccc(O)c2)cc1S(=O)(=O)N1CCCCCC1` the Potency was “inactive”. With `Cc1cc(NC(=O)COC(=O)c2cc(S(=O)(=O)N(C)C)ccc2Cl)no1` the “activity change, negative = cytotoxicity” value was inactive: -1.69%. With `COc1cccc(Nc2nc(CN)cs2)n1` the Potency was inconclusive: 3.26 µM [cytotoxic, partial curve, poor fit]. With `C=Cc1ccc(Cn2c(C)c(C(=O)NCc3cccc([N+](=O)[O-])c3)sc2=O)cc1` the Potency was inconclusive: 8.2 µM [cytotoxic, partial curve]. For `COc1ccc(CCC(=O)O)cc1`, the “activity change, negative = cytotoxicity” value was inactive: 5.5%. For `COC(=O)c1cc2c(ccn2-c2ccc(F)cc2)n1Cc1ccc(OC)cc1`, the Potency was inconclusive: 29.1 µM [cytotoxic, single point]. In the case of `CS(=O)(=O)N1CCCC(C(=O)NC2CCCCCCC2)C1` (stereo not given), the Potency is reported as inconclusive: 23.1 µM [cytotoxic, single point]. With `Cc1cc(=O)[nH]c(Nc2cccc(C(F)(F)F)c2)n1` the “activity change, negative = cytotoxicity” value was inactive: 0%. With `C=C(C)COc1ccc(-c2ncncc2-c2ccccc2OC)c(O)c1` the “activity change, negative = cytotoxicity” value was inactive: -0.76%. In the case of `COC(=O)c1ccc(NC(=O)CSc2nnc(CNc3ccc(OC)cc3)n2C)cc1`, the Potency is reported as inconclusive: 0.461 µM [cytotoxic, full curve, poor fit]. In the case of `CC(=O)c1ccccc1C(=O)N1CCC(CCC(=O)NCc2ccc(F)cc2)CC1`, the “activity change, negative = cytotoxicity” value is reported as inactive: 0%. With `O=C(NCCCN1CCOCC1)C(=O)N/N=C/c1c2ccccc2cc2ccccc12` the Potency was active: 10.3 µM. In the case of `Cc1c(Cc2ccccc2)c(=O)oc2cc(O)ccc12`, the “activity change, negative = cytotoxicity” value is reported as inactive: 1.57%. With `N#C/C(=C\c1ccc(OCC(N)=O)cc1)S(=O)(=O)c1ccccc1` the Potency was inconclusive: 23.1 µM [rising, single point]. With `CSc1nnc(NC(=O)c2nc(S(=O)(=O)Cc3ccccc3F)ncc2Cl)s1` the Potency was inconclusive: 29.1 µM [cytotoxic, single point]. With `COc1ccc(-n2ncc3c2CC(C)(C)CC3NC(=O)CCc2c(C)noc2C)cc1` (stereo not given) the Potency was inconclusive: 8.2 µM [cytotoxic, partial curve]. With `CC(C)(C)OC(=O)N1O[C@H]2C[C@@H]1[C@@H]1[C@@H]2N=NN1C12CC3CC(CC(C3)C1)C2` the “activity change, negative = cytotoxicity” value was inactive: -0.206%. For `O=C(O)CCCN1C(=O)/C(=C\C(Cl)=C\c2ccccc2)SC1=S`, the Potency was inconclusive: 25.9 µM [cytotoxic, partial curve, poor fit]. For `CCOC(=O)Cn1nnnc1CN(CCc1ccccc1)Cc1cc2cc(CC)ccc2[nH]c1=O`, the Potency was inconclusive: 16.4 µM [cytotoxic, single point]. For `O=C(NCc1ccncc1)C1CCN(S(=O)(=O)c2ccc(F)cc2)CC1`, the Potency was inconclusive: 29.1 µM [rising, partial curve, poor fit]. For `Cc1ccc(-n2cc(-c3ccccc3)nc2S(=O)(=O)CC(=O)Nc2ccc(F)cc2)cc1`, the Potency was inconclusive: 23.1 µM [cytotoxic, single point]. With `COc1ccc(C(=O)Oc2c(CN3CCOCC3)cc(Cl)c3cccnc23)cc1` the Potency was inconclusive: 18.4 µM [cytotoxic, partial curve, poor fit]. With `COc1ccc(S(=O)(=O)NCC(=O)NC2CC2)cc1OC` the Potency was inconclusive: 5.8 µM [rising, full curve]. In the case of `CC1(C(=O)NCc2ccc(C(F)(F)F)cc2)CCN1Cc1ccc(-c2ccccc2)o1` (stereo not given), the “activity change, negative = cytotoxicity” value is reported as inactive: -6.71%. With `N#C/C(C(=O)Nc1ccc(Cl)cc1)=C(/S)Nc1ccccc1` the Potency was inconclusive: 2.59 µM [rising, full curve, poor fit]. For `O=C(c1nc2ccccn2c1CN1CCCC(OCc2ccccc2)C1)N1CCCC1` (stereo not given), the “activity change, negative = cytotoxicity” value was inactive: 1.79%. In the case of `COc1ccc(CN(C)c2ccc(S(=O)(=O)N3CCN(C)CC3)cc2[N+](=O)[O-])cc1OC`, the Potency is reported as inconclusive: 2.91 µM [cytotoxic, full curve]. In the case of `Cc1ccccc1S(=O)(=O)N1C[C@H]2[C@H]3C(=O)N(C4CCCCC4)C(=O)[C@H]3CC(=O)[C@H]2[C@@H]1c1ccc(Cl)cc1`, the “activity change, negative = cytotoxicity” value is reported as inactive: 14%. With `CCOC(=O)N1CCN(c2cc(N3CCN(CC)CC3)c(F)cc2[N+](=O)[O-])CC1C` (stereo not given) the Potency was inconclusive: 11.6 µM [cytotoxic, partial curve, poor fit]. In the case of `CCN(C(=O)c1cccs1)C1CCS(=O)(=O)C1` (stereo not given), the “activity change, negative = cytotoxicity” value is reported as inactive: 0%.
